From patent US20130059929A1, “MICROBIOLOGICALLY STABLE, EASILY APPLICABLE PREPARATIONS” (Beiersdorf AG, priority 2010, published 2013)

Test system: Staphylococcus epidermidis
Test: biofilm assay (biofilm inhibition and biofilm dissolution, color reaction on microtiter plate scale, FIG. 1)
Format: cell-based
Conditions: timepoint 0 h, based on the positive control (PC1)
Procedure: In the course of the biofilm assay, the biofilm inhibition at timepoint 0 h and also the biofilm-dissolving effect at timepoint 24 h is investigated using a color reaction on a microtiter plate scale.
The test shown in FIG. 1 was carried out with Staphylococcus epidermidis, a germ which causes little harm for people with a normal immunological defense. Staphylococcus epidermidis (syn. Staphylococcus albus, Micrococcus epidermidis, Staphylococcus saprophyticus) is a Gram-positive, plasmacoagulase-negative, saprophagic bacterium which colonizes the human skin and mucosa. Furthermore, it can be found on foods and also colonizes on polymeric surfaces (e.g. packagings). However, in a hospital, in the case of immunocompromised people, it can, in cases of lack of cleanliness, be a cause of serious diseases.

## CC(C)(C)CC(C)(C)c1ccc(OCCOCC[N+](C)(C)Cc2ccccc2)cc1 [benzethonium chloride, benzyldimethyl (4-{2-[4-(1,1,3,3-tetramethylbutyl)phenoxy]ethoxy}ethyl)ammonium chloride]
  biofilm inhibition (biofilm-inhibiting effectiveness): very good biofilm-inhibiting effectiveness
